Experimental data: PubChem BioAssay AID1053208 (Peter MacCallum Cancer Centre, 2014)
The whole screen tested about 17,000 reagents; below is an unselected part. In the full data, 788 (4.7%) were called active. 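Calls rest on z-score classes alone; an extra cut-off of viability at most 70% of control was not applied to them.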

Screen: 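Genes whose silencing cuts survival of bone tumour cells only with doxorubicin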 (primary screen)
Cells: mouse osteosarcoma cells, early-passage culture from an engineered mouse model of fibroblastic bone tumour
Reagents: siRNA pool against mouse genes, 40 nM
Duration: about 120 h (48 h before drug, then 72 h with drug)
Treatment: doxorubicin 100 nM for 72 h, roughly 30-40% inhibitory dose
Detection: 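Viability read as ATP luminescence after 72 h of 100 nM doxorubicin or none, duplicate wells averaged, scaled to non-targeting siRNA, then expressed as robust z-scores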
Scale: viability z-score with doxorubicin and doxorubicin viability vs non-targeting: higher = more viable cells under doxorubicin; viability z-score without drug: higher = more viable cells with knock-down alone; z-score of drug to no-drug ratio: higher = less drug sensitisation by knock-down
Call rule: 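a pool counts as active when its viability z-score with doxorubicin is -2 or below and its z-score without drug lies between -2 and 2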

| target | PubChem SID | combined z-score class | viability z-score with doxorubicin | viability z-score without drug | z-score of drug to no-drug ratio | doxorubicin viability vs non-targeting | outcome |
| --- | --- | --- | --- | --- | --- | --- | --- |
| BC030500 (cDNA sequence BC030500) | SID152329550 | no change with or without drug | -0.9 | -0.51 | -0.56 | 0.86 | inactive |
| Fscn3 (fascin actin-bundling protein 3) | SID152316923 | no change with or without drug | -1.01 | -1.52 | 0.11 | 0.85 | inactive |
| Slc1a7 | SID152290851 | no change with or without drug | -1.69 | -0.17 | -1.57 | 0.79 | inactive |
| Cryl1 (crystallin, lambda 1) | SID152327079 | no change with or without drug | -0.67 | 1.18 | -1.35 | 0.88 | inactive |
| Asrgl1 (asparaginase like 1) | SID152266684 | no change with or without drug | -0.67 | -0.17 | -0.45 | 0.88 | inactive |
| Psme2b (protease (prosome, macropain) activator subunit 2B) | SID152282666 | no change with or without drug | 1.35 | 1.85 | 0.22 | 1.06 | inactive |
| Tlr4 (toll-like receptor 4) | SID152281298 | no change with or without drug | -1.01 | -0.51 | -0.67 | 0.85 | inactive |
| Cep89 (centrosomal protein 89) | SID152274703 | no change with or without drug | 0 | 0.17 | 0 | 0.94 | inactive |
| Pxk (PX domain containing serine/threonine kinase) | SID152312113 | no change with or without drug | -1.12 | -1.01 | -0.45 | 0.84 | inactive |
| Osbpl11 (oxysterol binding protein-like 11) | SID152313127 | no change with or without drug | -0.22 | -0.84 | 0.45 | 0.92 | inactive |

Next part; the last 2 above are carried over.
| target | PubChem SID | combined z-score class | viability z-score with doxorubicin | viability z-score without drug | z-score of drug to no-drug ratio | doxorubicin viability vs non-targeting | outcome |
| --- | --- | --- | --- | --- | --- | --- | --- |
| Pxk (PX domain containing serine/threonine kinase) | SID152312113 | no change with or without drug | -1.12 | -1.01 | -0.45 | 0.84 | inactive |
| Osbpl11 (oxysterol binding protein-like 11) | SID152313127 | no change with or without drug | -0.22 | -0.84 | 0.45 | 0.92 | inactive |
| Mrgprb8 (MAS-related GPR, member B8) | SID152335029 | low cell count with doxorubicin only | -2.02 | -1.52 | -1.12 | 0.76 | active |
| Sprr1a (small proline-rich protein 1A) | SID152278123 | no change with or without drug | 0.9 | 0 | 1.01 | 1.02 | inactive |
| Errfi1 (ERBB receptor feedback inhibitor 1) | SID152274957 | high cell count with doxorubicin only | 2.02 | 0.67 | 1.69 | 1.12 | inactive |
| B3gnt8 | SID152318884 | no change with or without drug | -1.46 | -0.51 | -1.12 | 0.81 | inactive |
| Cdadc1 (cytidine and dCMP deaminase domain containing 1) | SID152307195 | no change with or without drug | 0.11 | -0.51 | 0.56 | 0.95 | inactive |
| Klhl18 (kelch-like 18) | SID152280676 | no change with or without drug | 1.12 | 0.51 | 0.9 | 1.04 | inactive |
| Ndufa3 (NADH:ubiquinone oxidoreductase subunit A3) | SID152337507 | no change with or without drug | -0.22 | -1.52 | 1.01 | 0.92 | inactive |
| Gpcpd1 (glycerophosphocholine phosphodiesterase 1) | SID152335001 | high cell count without drug only | -0.45 | 2.19 | -1.69 | 0.9 | inactive |
| R3hdm2 (R3H domain containing 2) | SID152341597 | no change with or without drug | 1.01 | 0.51 | 0.79 | 1.03 | inactive |
| Zswim3 (zinc finger SWIM-type containing 3) | SID152338738 | no change with or without drug | 1.35 | -0.34 | 1.8 | 1.06 | inactive |
